Substitutions are numbered along the chain they refer to. Results are given in words; binding and its absence hold for the method and conditions named. Binding seen in cells or lysates may run through a third protein. Some binding calls cover weakened binding; strength is not graded here. Tags and fused reporters may be left off the sequences shown. Blank lines part the entries; values can stand above or below the binder they belong to.
Legend:
[1] = target: T1, SnRK2.3-YFP (SnRK2.3pro:SnRK2.3-YFP) (Arabidopsis thaliana) (UniProt Q39193); assay: co-IP; total soluble proteins of 3-day-old transgenic Arabidopsis seedlings with SnRK2.2-YFP or SnRK2.3-YFP and SPCH2-4A-Myc; immunoprecipitation with anti-GFP beads (GFP-Trap); blots with anti-Myc and anti-GFP; buffer 50 mM tris-HCl pH 7.5, 150 mM NaCl, 1 mM EDTA, 5% glycerol, 0.5% Triton X-100, 25 uM MG132
T1 sequence: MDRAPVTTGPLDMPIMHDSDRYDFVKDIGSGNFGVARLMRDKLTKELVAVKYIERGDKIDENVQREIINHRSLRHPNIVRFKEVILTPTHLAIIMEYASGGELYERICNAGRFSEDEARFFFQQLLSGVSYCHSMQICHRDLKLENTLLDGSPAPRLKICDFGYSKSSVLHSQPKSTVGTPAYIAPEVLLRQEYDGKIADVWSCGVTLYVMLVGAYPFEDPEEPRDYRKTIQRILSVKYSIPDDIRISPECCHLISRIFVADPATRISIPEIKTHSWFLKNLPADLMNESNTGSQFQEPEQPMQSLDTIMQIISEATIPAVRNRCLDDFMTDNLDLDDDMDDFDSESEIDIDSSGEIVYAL

[2] = target: T2, SnRK2.2-YFP (SnRK2.2pro:SnRK2.2-YFP) (Arabidopsis thaliana) (UniProt Q39192); assay: as above
T2 sequence: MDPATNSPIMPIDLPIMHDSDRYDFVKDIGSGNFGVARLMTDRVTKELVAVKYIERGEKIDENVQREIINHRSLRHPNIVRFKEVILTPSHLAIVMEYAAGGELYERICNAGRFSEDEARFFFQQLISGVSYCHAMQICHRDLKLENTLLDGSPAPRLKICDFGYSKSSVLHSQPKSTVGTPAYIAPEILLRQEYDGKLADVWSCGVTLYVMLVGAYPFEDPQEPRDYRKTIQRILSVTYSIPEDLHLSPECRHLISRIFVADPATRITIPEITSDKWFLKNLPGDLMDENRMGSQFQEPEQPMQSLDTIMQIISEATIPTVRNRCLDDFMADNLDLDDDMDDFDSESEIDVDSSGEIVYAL

[3] = target: T3, cYFP-SPCH (Arabidopsis thaliana) (UniProt Q700C7); assay: split reporter; BiFC: nYFP-SnRK2s and cYFP-SPCH coexpressed transiently (35S promoter) in N. benthamiana leaves; YFP signal seen 48 to 72 hours after infiltration by wide-field fluorescence microscopy
T3 sequence: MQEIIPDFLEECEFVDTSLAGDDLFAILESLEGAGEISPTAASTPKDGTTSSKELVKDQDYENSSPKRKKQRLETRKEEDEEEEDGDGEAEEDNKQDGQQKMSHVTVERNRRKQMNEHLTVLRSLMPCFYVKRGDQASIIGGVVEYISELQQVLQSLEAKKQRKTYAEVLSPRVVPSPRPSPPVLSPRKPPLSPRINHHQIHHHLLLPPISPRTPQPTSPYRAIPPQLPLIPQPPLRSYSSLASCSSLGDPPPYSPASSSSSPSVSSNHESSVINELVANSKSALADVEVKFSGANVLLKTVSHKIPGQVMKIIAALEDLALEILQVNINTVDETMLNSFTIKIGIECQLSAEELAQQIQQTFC

binding [1]: binds
binding [2]: binds
B1: SPCH2-4A-Myc (SPCHpro:SPCH2-4A-Myc) (protein, UniProt Q700C7 1-364)
chain: T3 sequence with S211A, T214A, S219A

binding [3]: binds
B2: MBP-SnRK2.2 (maltose-binding protein-tagged SnRK2.2) (enzyme, Arabidopsis thaliana, UniProt Q39192 1-362, looked up)
chain: T2 sequence
notes: SnRK2.2/SRK2D, subclass III SNF1-related protein kinase 2, Arabidopsis thaliana; cDNA cloned into pETG-40A; also called SRK2D; source: E. coli ArcticExpress (DE3), purified (MBP amylose resin)

binding [3]: binds
B3: MBP-SnRK2.3 (maltose-binding protein-tagged SnRK2.3) (enzyme, Arabidopsis thaliana, UniProt Q39193 1-361, looked up)
chain: T1 sequence
notes: SnRK2.3/SRK2I, subclass III SNF1-related protein kinase 2, Arabidopsis thaliana; cDNA cloned into pETG-40A; also called SRK2I; source: E. coli ArcticExpress (DE3), purified (MBP amylose resin)

Source: article PMC9544323, “Abscisic acid regulates stomatal production by imprinting a SnRK2 kinase–mediated phosphocode on the master regulator [sequence]” (Science Advances, 2022)
